Experimental data: patent US4664850A, “Novel radioactive steroids” (Roussel Uclaf, priority 1983, dated 1987)
The name of at least one read-out is uncertain.

Tested on: glucocorticoid receptors of the hippocampus
Test: Dissociation from glucocorticoid receptors of hippocampus cytosol
Type: binding

Q: For `[3H]C([3H])([3H])C1=CC2C(C(O)CC3(C)C2CCC3(O)C#CC)C2(C)C=CC(=O)C=C12` (stereo not drawn) [Product A, 6-methyl-^3 H3-17α-(prop-1-ynyl)-Δ^1,4,6-androstatriene-11β,17β-diol-3-one], which “dissociation t1/2” value is on record?
A: ~24 h
